PubChem BioAssay AID1259331, Drosophila RNAi Screening Center, 2017
Aim: 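Fly transmembrane-protein genes that affect zinc toxicity in cultured cells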 (primary screen). System: Drosophila S2R+ cells. Reagents: long dsRNA against Drosophila genes. Timing: 5 days (4 days knock-down, then 1 day zinc). Conditions: zinc chloride at 15 mM final level for 1 day. Read-out: 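Luminescent ATP assay standing in for viability; Z score is the mean over three replicate plates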. Scale: mean Z score: higher = more ATP than other wells, better survival under zinc; ATP luminescence: higher = more ATP, more viable cells. Active means: 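a reagent is called a hit when its Z score is above 1.5 or below -1.5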. Meaning of the calls: active = hit, ATP up or down; inactive = not a hit.
In all, the deposit lists about 3,100 reagents; shown is a part drawn at random. Over the whole deposit, 126 (4.1%) got an active call. 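Calls are per reagent; zinc was so toxic that few knock-downs lowered ATP further, so most hits raise ATP.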 The raw values are shown without normalisation. A number with no mark means an inactive call. A plus sign joins genes that one reagent is predicted to hit. No sequences are given here. Not given: the amount of reagent.

Target gene | amplicon | mean Z score | ATP luminescence, replicate 1 | ATP luminescence, replicate 2
CG5805 | DRSC15878 | -0.384 | 40877 | 43734
CG5805 | DRSC39631 | 0.0998 | 60916 | 59294
PK2-R1 (Pyrokinin 2 receptor 1) | DRSC16447 | -0.529 | 33644 | 53241
PK2-R1 (Pyrokinin 2 receptor 1) | DRSC24363 | -0.0634 | 51098 | 59174
Pis (Phosphatidylinositol synthase) | DRSC20178 | 0.421 | 74867 | 71145
Pis (Phosphatidylinositol synthase) | DRSC29976 | 0.101 | 49986 | 48064
TM4SF (Transmembrane 4 superfamily) | DRSC04661 | -0.232 | 29650 | 28565
TM4SF (Transmembrane 4 superfamily) | DRSC39574 | -0.456 | 52915 | 53361
Mrp4 (Multidrug resistance protein 4) | DRSC14931 | -0.47 | 33353 | 50189
Mrp4 (Multidrug resistance protein 4) | DRSC28151 | -1.26 | 41771 | 37898
VGlut (Vesicular glutamate transporter) | DRSC21821 | -0.126 | 48200 | 47180
VGlut (Vesicular glutamate transporter) | DRSC39749 | -0.403 | 60872 | 51475
CG34396 | DRSC04245 | 1.54 (active) | 69230 | 64034
CG34396 | DRSC04246 | -0.515 | 34519 | 46520
CG34396 | DRSC29674 | -0.321 | 66095 | 46623
CG18635 | DRSC06780 | -0.295 | 45165 | 38102
CG18635 | DRSC25971 | -0.393 | 51149 | 60718
NaPi-III (Na[+]-dependent inorganic phosphate cotransporter type III) | DRSC10893 | -0.448 | 29933 | 27285
NaPi-III (Na[+]-dependent inorganic phosphate cotransporter type III) | DRSC28299 | 0.223 | 65228 | 64439
rdgB (retinal degeneration B) | DRSC20365 | 0.238 | 52255 | 35633
rdgB (retinal degeneration B) | DRSC27840 | 0.183 | 62347 | 59380
Cse1 (Chromosome segregation 1) | DRSC26857 | 6.7 (active) | 1.57e5 | 1.45e5
Tsp42El (Tetraspanin 42El) | DRSC06186 | -0.348 | 40931 | 39148
gogo (golden goal) | DRSC10070 | 2.92 (active) | 1.26e5 | 1.04e5
gogo (golden goal) | DRSC10071 | -0.187 | 39970 | 42062
CG31793 | DRSC02605 | -0.252 | 45868 | 35925
CG31793 | DRSC24308 | -0.304 | 51701 | 61800
dy (dusky) | DRSC20325 | -0.48 | 55234 | 61009
dy (dusky) | DRSC25539 | -0.117 | 54562 | 55728
Mgat2 | DRSC16347 | 1.5 | 66463 | 60186
Mgat2 | DRSC29105 | -1.22 | 45388 | 39612
ptc (patched) | DRSC05117 | -0.107 | 39868 | 43059
ptc (patched) | DRSC07669 | 0.122 | 74757 | 73803
Mdr50 (Multi drug resistance 50) | DRSC07467 | -0.0559 | 70738 | 71762
Mdr50 (Multi drug resistance 50) | DRSC23705 | -0.0816 | 55813 | 54081
Or65c (Odorant receptor 65c) | DRSC21312 | -0.00856 | 48479 | 48183
Or65c (Odorant receptor 65c) | DRSC39421 | 2 (active) | 82517 | 73203
Fitm (Fat storage inducing transmembrane protein) | DRSC09772 | -0.471 | 25604 | 29846
Fitm (Fat storage inducing transmembrane protein) | DRSC28750 | -0.0473 | 61284 | 60032
CG10337 | DRSC02038 | -0.417 | 36696 | 56465
CG10337 | DRSC39603 | 0.613 | 71591 | 68246
Nct (Nicastrin) | DRSC16172 | -0.499 | 39233 | 41462
Nct (Nicastrin) | DRSC39647 | -0.82 | 51887 | 46091
CngA (Cyclic nucleotide-gated ion channel subunit A) | DRSC07362 | 0.122 | 77354 | 74764
Lgr3 (Leucine-rich repeat-containing G protein-coupled receptor 3) | DRSC15704 | -0.447 | 43297 | 40022
Lgr3 (Leucine-rich repeat-containing G protein-coupled receptor 3) | DRSC15706 | 0.883 | 44825 | 68606

The list goes on (7 carried over from the part before).
Target gene | amplicon | mean Z score | ATP luminescence, replicate 1 | ATP luminescence, replicate 2
CG10337 | DRSC02038 | -0.417 | 36696 | 56465
CG10337 | DRSC39603 | 0.613 | 71591 | 68246
Nct (Nicastrin) | DRSC16172 | -0.499 | 39233 | 41462
Nct (Nicastrin) | DRSC39647 | -0.82 | 51887 | 46091
CngA (Cyclic nucleotide-gated ion channel subunit A) | DRSC07362 | 0.122 | 77354 | 74764
Lgr3 (Leucine-rich repeat-containing G protein-coupled receptor 3) | DRSC15704 | -0.447 | 43297 | 40022
Lgr3 (Leucine-rich repeat-containing G protein-coupled receptor 3) | DRSC15706 | 0.883 | 44825 | 68606
AstC-R2 (Allatostatin C receptor 2) | DRSC23467 | 0.0559 | 53910 | 53121
AstC-R2 (Allatostatin C receptor 2) | DRSC39469 | -0.239 | 47475 | 45285
InR (Insulin-like receptor) | DRSC16717 | -0.579 | 36353 | 53225
InR (Insulin-like receptor) | DRSC36685 | -0.425 | 42525 | 38822
InR (Insulin-like receptor) | DRSC36686 | -0.439 | 42388 | 43076
SK (small conductance calcium-activated potassium channel) | DRSC17387 | -0.505 | 64709 | 66719
SK (small conductance calcium-activated potassium channel) | DRSC17887 | 0.265 | 41633 | 42491
SK (small conductance calcium-activated potassium channel) | DRSC17888 | -0.37 | 59792 | 60049
SK (small conductance calcium-activated potassium channel) | DRSC27622 | -0.0109 | 57151 | 58716
CG5262 | DRSC11773 | 0.0433 | 29673 | 31810
CG5262 | DRSC39543 | 0.0446 | 50755 | 52315
ACXB (Adenylyl cyclase X B) | DRSC26343 | 0.571 | 66926 | 67475
ACXB (Adenylyl cyclase X B) | DRSC39703 | 0.691 | 67429 | 71690
sas (stranded at second) | DRSC12631 | 0.642 | 88263 | 69704
Vha16-5 (Vacuolar H[+] ATPase 16kD subunit 5) | DRSC02986 | -0.546 | 38959 | 47840
Gr59c (Gustatory receptor 59c) | DRSC04185 | -0.0344 | 53327 | 39162
Octbeta3R (Octopamine beta3 receptor) | DRSC21853 | -0.281 | 43159 | 42868
Octbeta3R (Octopamine beta3 receptor) | DRSC25327 | 0.729 | 71762 | 73512
Sys1 (Sys1 golgi trafficking protein) | DRSC14372 | -0.59 | 32616 | 47146
Ir68b (Ionotropic receptor 68b) | DRSC10251 | -0.123 | 72817 | 57243
Ir68b (Ionotropic receptor 68b) | DRSC39424 | 0.247 | 53276 | 51732
fzo (fuzzy onions) | DRSC16954 | -0.484 | 35925 | 50721
fzo (fuzzy onions) | DRSC39864 | 0.0353 | 57139 | 64233
ppk20 (pickpocket 20) | DRSC16260 | 0.914 | 74935 | 87594
ppk20 (pickpocket 20) | DRSC28819 | 0.105 | 61452 | 64611
teq (Tequila) | DRSC11301 | -0.29 | 75879 | 55779
teq (Tequila) | DRSC11302 | -0.266 | 40948 | 45310
ste24c + CG30461 | DRSC05639 | -0.284 | 37690 | 40149
ste24c + CG30461 | DRSC07316 | -0.147 | 55625 | 70081
CG5885 | DRSC02910 | 2.66 (active) | 92758 | 94891
CG5885 | DRSC28761 | 1.04 | 75294 | 79446
Or42b (Odorant receptor 42b) | DRSC04913 | 0.165 | 1.14e5 | 76445
Or42b (Odorant receptor 42b) | DRSC27273 | 0.124 | 59062 | 60546
tadr (torn and diminished rhabdomeres) | DRSC03177 | -0.235 | 30147 | 32530
tadr (torn and diminished rhabdomeres) | DRSC39590 | -0.216 | 53554 | 59209
CG13016 | DRSC06271 | -0.109 | 63993 | 64542
CG13016 | DRSC39858 | 0.0939 | 58506 | 62947
Nup98-96 (Nucleoporin 98-96kD) | DRSC14209 | 9.66 (active) | 1.52e5 | 1.73e5
Nup98-96 (Nucleoporin 98-96kD) | DRSC14210 | 2.39 (active) | 75450 | 92363
Miro (Mitochondrial Rho) | DRSC15795 | -0.345 | 42405 | 43382
Miro (Mitochondrial Rho) | DRSC39610 | -0.325 | 50601 | 53550
